From the supplement of paper PMC12819154, “High-throughput peptide-centric local stability assay extends protein–ligand identification to membrane proteins, tissues and bacteria” (Nature Structural & Molecular Biology, 2025)
The list shows a part of the results. Most values lie at the level of the controls, where differences are scatter.

Amino acid sequences for entries named in this document (tags omitted). A change or cut given only in a name is not applied to a line headed by its entry.
UniProt Q3TDD9: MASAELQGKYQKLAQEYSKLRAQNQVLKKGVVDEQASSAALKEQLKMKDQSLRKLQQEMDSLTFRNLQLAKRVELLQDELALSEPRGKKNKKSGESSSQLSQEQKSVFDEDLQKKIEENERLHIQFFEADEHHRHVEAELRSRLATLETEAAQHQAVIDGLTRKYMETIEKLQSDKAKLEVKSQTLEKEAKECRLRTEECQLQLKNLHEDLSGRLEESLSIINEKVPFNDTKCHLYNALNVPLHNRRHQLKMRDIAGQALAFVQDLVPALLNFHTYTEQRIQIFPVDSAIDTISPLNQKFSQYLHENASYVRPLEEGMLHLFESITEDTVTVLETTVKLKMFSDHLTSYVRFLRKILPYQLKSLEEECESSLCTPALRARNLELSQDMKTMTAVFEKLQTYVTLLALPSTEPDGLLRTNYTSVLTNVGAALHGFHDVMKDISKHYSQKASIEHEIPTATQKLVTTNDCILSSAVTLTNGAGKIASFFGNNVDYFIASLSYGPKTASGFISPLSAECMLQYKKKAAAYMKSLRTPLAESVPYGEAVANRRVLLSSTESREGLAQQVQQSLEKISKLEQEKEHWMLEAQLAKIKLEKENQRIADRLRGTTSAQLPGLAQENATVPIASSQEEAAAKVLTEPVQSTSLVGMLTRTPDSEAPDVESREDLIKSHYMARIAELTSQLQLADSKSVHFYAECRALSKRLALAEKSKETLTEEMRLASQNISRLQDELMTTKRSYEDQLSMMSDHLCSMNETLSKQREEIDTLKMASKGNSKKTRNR
UniProt Q08376: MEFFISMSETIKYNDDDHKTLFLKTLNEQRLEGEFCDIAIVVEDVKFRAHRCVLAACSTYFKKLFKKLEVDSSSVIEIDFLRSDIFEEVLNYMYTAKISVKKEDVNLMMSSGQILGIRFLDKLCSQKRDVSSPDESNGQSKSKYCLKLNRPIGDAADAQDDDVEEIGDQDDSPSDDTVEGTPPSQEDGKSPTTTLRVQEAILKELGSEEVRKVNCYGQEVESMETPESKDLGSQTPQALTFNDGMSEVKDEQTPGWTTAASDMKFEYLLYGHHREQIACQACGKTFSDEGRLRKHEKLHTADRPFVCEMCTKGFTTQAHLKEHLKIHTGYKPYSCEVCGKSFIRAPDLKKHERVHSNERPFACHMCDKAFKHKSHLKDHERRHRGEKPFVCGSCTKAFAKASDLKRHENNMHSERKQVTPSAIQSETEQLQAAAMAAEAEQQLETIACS
UniProt Q0VGY8: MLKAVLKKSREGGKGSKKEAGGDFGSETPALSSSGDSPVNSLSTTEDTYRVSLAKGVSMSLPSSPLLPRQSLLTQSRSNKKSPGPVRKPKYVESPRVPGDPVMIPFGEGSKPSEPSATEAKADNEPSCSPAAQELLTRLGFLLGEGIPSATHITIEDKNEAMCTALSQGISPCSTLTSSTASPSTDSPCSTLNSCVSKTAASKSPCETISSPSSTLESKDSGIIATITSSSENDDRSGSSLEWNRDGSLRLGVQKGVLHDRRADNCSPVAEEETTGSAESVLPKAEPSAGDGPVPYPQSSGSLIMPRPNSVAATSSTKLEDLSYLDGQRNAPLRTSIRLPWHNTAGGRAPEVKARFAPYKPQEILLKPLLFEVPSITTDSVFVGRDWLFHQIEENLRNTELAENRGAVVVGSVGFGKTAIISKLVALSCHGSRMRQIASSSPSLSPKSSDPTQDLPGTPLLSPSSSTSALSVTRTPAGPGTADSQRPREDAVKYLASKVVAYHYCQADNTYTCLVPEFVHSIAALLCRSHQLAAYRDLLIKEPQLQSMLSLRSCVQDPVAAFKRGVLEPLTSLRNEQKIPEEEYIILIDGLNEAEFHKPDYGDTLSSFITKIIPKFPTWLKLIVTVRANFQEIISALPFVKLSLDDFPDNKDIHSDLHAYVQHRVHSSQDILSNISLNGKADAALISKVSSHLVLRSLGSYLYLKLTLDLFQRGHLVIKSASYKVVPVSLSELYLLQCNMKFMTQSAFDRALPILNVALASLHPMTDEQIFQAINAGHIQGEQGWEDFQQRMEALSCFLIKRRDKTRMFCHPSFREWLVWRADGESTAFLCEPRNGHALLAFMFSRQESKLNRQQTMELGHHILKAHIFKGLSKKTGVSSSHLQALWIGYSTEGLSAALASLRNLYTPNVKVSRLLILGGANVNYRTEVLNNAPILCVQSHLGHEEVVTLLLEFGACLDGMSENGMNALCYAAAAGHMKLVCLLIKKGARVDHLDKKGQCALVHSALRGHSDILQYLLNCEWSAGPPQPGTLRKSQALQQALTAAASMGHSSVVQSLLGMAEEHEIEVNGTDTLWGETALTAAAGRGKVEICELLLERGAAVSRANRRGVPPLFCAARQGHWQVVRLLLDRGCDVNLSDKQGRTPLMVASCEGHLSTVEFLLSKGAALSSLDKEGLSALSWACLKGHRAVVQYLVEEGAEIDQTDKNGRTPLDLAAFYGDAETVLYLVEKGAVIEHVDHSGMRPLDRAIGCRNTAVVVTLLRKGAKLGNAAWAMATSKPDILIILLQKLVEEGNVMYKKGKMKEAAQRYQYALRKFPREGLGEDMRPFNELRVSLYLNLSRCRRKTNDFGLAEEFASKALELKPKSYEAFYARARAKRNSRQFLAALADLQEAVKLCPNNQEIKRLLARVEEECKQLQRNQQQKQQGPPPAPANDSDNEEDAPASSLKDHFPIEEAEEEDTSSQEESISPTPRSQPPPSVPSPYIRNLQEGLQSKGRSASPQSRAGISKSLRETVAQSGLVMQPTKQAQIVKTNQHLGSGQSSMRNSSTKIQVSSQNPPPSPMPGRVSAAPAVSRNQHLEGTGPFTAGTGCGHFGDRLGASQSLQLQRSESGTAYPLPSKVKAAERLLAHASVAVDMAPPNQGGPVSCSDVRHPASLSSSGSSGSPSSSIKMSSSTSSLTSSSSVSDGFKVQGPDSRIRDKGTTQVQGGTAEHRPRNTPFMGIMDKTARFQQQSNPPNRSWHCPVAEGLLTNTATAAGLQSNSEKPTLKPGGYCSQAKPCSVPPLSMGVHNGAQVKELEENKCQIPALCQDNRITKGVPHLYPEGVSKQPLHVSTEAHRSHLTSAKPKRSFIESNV
UniProt Q3TZZ7: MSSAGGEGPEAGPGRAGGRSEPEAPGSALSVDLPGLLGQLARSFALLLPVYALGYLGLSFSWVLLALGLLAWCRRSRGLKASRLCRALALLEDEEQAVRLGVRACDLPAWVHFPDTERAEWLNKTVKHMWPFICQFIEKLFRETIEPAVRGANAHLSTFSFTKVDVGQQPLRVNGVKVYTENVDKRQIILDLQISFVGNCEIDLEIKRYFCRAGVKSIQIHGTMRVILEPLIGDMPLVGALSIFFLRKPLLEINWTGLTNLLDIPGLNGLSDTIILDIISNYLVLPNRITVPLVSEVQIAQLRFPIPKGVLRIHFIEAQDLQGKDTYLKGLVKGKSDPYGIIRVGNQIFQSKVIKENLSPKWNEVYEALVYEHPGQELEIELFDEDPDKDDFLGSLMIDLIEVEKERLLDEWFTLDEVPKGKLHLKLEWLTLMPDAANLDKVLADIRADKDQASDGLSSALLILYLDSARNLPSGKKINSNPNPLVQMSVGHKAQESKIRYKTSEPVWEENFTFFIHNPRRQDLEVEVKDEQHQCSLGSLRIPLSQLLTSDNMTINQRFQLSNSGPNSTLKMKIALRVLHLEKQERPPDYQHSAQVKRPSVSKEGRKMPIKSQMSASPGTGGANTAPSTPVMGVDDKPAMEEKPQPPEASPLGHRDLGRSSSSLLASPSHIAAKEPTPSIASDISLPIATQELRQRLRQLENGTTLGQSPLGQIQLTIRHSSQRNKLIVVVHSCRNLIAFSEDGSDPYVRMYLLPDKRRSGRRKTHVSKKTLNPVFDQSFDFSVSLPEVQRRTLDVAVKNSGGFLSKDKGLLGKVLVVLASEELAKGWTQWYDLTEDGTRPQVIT
UniProt Q2TBA3: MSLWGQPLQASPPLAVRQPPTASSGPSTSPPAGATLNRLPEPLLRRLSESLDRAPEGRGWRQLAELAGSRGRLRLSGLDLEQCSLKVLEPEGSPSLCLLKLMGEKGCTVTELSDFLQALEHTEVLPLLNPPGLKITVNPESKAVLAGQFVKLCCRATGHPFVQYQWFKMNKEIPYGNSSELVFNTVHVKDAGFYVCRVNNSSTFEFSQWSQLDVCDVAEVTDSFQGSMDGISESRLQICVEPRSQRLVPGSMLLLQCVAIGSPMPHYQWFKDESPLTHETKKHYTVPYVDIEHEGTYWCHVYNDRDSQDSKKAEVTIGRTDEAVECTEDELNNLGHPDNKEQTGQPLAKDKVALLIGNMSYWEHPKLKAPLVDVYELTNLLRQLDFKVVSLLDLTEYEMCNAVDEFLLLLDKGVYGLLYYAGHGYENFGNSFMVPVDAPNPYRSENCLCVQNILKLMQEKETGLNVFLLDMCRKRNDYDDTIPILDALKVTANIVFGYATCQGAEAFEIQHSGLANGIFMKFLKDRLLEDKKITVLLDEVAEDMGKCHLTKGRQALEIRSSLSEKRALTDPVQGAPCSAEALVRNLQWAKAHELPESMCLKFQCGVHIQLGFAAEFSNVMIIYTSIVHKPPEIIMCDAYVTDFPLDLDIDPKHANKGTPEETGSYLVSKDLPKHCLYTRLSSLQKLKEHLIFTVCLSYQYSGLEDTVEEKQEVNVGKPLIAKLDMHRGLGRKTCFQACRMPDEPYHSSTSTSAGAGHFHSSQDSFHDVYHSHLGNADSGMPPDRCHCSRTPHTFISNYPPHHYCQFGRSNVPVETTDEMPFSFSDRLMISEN

Each target was assayed with CN[C@@H]1C[C@H]2O[C@@](C)([C@@H]1OC)n1c3ccccc3c3c4c(c5c6ccccc6n2c5c31)C(=O)NC4 [staurosporine] (assay: log2 fold change of tryptic peptide abundance, ligand vs vehicle (limited proteolysis) (log2 ratio); higher = more trypsin-susceptible (destabilized)). Conditions: ligand concentration: 20 uM; sample: mouse liver crude lysate; replicate design: treated separately.

Target	log2 fold change
UniProt Q3TDD9 (peptide sequence: SKETLTEEMR, peptide start residue: 709)	-0.408
UniProt Q08376 (peptide sequence: FEYLLYGHHR, peptide start residue: 265)	-0.444
UniProt Q0VGY8 (peptide sequence: LEDLSYLDGQR, peptide start residue: 319)	-0.557
UniProt Q3TZZ7 (peptide sequence: GKSDPYGIIR, peptide start residue: 334)	-0.338
UniProt Q2TBA3 (peptide sequence: QLAELAGSR, peptide start residue: 62)	-0.125
